The other results are listed elsewhere or left out.
Experiments:
Experiment in all cases: log2 fold change, soluble protein after heating vs DMSO (PISA); higher = thermal stabilisation; K562 cells, 10 uM, 30 min; active = over 0.2 and 3.5 SD of the protein, either way, in both replicates (recomputed)
[1] = compound: COC1=CC=C(C=C1)CN2C=CC3=C2C=C(C=C3)C(=O)NO
Procedure, shortened: (§1)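 Values are thermal stability changes relative to control samples and are taken from duplicates. They are stated as log2 fold changes. Before quantification by TMTpro 16plex LC-MS/MS with equalised channel sums, K562 cells at 2×10^6 cells/mL were treated with 10 μM compound for 30 min, heated in aliquots for 3 min across 48°C-58°C, pooled, extracted in PBS with 0.5% NP-40 at 4°C, and centrifuged at 21,000xg for 90 min to give the soluble supernatant.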

Chains of the proteins cited; added tags and fusions are not shown. Lines headed by an entry give the natural chain unless they say otherwise; changes in a name come on top.
UniProt Q13424: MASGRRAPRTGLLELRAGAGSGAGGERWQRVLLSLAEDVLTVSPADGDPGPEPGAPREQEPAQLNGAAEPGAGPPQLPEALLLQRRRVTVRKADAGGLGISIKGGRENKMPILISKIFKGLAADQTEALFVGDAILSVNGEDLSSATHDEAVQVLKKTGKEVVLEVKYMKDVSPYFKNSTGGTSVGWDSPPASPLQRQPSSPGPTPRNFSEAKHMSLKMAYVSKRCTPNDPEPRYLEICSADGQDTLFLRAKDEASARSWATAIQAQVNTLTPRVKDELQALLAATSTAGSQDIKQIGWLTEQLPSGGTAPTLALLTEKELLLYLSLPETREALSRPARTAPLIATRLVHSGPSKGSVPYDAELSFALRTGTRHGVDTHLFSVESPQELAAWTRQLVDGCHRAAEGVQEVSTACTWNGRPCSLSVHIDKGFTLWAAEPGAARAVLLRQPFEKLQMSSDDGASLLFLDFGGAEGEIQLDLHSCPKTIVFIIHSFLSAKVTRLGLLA
UniProt Q9BX66: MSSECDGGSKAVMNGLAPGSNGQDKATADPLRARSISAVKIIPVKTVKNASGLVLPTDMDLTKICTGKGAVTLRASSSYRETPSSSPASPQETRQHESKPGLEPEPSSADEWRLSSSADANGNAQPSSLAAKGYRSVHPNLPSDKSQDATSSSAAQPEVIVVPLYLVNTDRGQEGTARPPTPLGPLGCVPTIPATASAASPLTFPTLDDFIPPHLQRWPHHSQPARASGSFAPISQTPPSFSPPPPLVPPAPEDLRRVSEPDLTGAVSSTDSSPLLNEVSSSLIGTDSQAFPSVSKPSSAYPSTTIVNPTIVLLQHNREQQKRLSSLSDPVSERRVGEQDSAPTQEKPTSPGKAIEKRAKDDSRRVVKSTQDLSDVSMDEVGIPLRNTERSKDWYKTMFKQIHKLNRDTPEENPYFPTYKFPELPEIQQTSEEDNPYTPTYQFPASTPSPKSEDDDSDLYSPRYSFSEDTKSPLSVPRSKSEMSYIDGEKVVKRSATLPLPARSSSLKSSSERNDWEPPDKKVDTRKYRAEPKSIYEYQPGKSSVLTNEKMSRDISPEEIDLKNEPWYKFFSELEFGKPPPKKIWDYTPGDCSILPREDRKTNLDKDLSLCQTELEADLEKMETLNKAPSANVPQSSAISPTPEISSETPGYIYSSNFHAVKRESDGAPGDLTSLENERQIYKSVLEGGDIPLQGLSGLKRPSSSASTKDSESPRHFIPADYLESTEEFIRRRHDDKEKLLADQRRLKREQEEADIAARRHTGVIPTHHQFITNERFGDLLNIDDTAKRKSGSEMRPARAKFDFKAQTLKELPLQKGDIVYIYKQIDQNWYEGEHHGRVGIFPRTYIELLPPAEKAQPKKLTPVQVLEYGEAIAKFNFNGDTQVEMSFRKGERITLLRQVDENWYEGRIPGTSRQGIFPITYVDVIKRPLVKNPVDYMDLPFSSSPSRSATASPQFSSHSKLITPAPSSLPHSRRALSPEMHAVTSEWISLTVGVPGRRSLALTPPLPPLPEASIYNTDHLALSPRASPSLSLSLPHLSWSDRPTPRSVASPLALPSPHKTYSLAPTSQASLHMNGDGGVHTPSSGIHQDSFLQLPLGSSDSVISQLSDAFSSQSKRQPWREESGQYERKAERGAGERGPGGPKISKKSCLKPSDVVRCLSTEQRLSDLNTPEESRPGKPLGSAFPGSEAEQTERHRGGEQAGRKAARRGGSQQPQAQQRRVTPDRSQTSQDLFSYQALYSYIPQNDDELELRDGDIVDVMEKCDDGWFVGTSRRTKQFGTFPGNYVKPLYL
UniProt P62314, whole entry, looked up: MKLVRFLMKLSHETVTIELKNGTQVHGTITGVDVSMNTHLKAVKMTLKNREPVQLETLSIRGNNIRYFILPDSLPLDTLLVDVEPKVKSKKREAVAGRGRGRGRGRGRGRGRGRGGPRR
UniProt P62306, whole entry, looked up: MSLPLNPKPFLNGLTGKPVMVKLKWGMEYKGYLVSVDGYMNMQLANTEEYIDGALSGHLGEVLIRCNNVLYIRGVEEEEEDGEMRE
UniProt Q16637, whole entry, looked up: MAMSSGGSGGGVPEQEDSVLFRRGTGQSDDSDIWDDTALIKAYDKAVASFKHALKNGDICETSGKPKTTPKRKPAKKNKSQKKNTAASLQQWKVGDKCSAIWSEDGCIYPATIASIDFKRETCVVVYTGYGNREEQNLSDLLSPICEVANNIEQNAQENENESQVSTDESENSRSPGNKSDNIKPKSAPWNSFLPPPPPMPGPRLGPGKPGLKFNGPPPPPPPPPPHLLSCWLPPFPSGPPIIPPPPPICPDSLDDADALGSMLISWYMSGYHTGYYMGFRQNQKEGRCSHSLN
UniProt Q96H20: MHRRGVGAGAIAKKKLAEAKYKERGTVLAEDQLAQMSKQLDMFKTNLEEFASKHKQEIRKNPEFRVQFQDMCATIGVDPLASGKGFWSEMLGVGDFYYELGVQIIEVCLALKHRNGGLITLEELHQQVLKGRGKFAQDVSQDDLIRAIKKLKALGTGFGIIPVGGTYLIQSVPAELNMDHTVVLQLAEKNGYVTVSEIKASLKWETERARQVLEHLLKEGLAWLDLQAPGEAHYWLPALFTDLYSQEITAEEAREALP
UniProt Q13485: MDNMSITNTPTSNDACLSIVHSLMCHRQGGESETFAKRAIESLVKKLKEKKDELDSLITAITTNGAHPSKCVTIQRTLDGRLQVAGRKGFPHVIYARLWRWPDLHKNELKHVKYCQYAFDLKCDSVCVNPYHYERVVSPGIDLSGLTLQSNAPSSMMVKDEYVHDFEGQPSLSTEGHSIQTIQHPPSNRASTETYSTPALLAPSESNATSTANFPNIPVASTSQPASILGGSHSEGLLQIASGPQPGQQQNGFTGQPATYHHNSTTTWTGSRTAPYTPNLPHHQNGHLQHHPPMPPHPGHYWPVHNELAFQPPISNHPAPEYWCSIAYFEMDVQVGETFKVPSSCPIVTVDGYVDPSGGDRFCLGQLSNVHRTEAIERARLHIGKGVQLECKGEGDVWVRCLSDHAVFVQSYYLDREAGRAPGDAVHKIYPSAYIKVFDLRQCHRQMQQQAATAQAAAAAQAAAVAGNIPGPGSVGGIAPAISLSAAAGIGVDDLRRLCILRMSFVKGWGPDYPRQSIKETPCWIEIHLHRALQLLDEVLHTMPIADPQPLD
UniProt P00441, whole entry, looked up: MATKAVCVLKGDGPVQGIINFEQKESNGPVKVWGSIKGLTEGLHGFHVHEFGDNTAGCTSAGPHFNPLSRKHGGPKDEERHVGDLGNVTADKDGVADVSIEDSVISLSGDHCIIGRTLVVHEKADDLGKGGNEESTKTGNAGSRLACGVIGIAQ
UniProt O14745: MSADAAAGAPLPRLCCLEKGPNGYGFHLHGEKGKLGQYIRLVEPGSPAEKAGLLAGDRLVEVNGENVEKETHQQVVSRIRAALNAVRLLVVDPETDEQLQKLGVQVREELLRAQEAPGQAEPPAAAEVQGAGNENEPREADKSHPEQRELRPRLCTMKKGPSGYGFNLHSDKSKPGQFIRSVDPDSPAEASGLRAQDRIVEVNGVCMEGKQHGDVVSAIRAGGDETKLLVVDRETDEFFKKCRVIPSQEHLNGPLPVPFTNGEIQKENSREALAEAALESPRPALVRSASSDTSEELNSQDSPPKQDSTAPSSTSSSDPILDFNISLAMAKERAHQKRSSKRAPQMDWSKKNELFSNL
UniProt P62304, whole entry, looked up: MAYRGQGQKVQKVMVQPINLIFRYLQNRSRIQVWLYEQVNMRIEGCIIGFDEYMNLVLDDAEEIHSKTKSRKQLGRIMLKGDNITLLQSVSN
UniProt Q9UQE7: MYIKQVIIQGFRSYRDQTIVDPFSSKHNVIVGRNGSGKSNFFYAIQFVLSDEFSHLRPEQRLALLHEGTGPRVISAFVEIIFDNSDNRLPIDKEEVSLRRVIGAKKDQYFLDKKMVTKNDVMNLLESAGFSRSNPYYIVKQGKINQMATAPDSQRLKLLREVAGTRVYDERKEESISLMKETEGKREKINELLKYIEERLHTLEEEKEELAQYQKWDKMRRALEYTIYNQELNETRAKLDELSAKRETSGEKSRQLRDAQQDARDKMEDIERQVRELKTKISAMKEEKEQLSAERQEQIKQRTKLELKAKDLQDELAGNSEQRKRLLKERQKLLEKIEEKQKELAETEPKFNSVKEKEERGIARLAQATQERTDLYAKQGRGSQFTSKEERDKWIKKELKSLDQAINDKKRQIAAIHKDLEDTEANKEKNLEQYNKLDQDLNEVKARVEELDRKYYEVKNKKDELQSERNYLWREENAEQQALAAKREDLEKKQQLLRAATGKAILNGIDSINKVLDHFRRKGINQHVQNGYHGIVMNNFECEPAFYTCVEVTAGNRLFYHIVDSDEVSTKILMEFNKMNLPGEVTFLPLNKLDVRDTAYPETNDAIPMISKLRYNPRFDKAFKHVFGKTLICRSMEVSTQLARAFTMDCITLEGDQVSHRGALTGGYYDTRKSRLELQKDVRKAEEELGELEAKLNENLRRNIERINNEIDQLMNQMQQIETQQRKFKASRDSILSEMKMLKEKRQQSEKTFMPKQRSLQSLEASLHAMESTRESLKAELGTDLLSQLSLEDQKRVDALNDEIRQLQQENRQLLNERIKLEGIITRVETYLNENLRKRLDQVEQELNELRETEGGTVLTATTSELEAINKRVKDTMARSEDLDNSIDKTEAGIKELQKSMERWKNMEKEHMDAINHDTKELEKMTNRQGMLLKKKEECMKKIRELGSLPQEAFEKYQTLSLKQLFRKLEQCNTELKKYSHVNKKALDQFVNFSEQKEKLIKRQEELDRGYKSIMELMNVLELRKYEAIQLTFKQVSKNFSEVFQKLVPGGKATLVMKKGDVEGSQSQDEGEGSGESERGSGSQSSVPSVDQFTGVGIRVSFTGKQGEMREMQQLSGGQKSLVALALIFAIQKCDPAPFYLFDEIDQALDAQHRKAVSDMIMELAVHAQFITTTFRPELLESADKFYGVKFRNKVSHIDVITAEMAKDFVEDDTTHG
UniProt O75940: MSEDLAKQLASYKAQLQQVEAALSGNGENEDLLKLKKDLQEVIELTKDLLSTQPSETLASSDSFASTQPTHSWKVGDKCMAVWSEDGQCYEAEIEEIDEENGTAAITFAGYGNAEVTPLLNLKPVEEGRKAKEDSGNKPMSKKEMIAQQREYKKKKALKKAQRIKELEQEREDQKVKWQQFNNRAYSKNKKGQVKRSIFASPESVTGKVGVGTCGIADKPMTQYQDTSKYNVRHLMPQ
UniProt P62316, whole entry, looked up: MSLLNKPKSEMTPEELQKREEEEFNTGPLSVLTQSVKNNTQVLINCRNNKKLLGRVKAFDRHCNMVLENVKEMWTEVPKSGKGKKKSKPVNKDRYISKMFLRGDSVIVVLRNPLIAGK
UniProt Q96EX1: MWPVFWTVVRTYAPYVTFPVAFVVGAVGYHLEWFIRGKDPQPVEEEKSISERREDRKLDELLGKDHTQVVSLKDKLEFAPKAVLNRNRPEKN
UniProt Q8TAQ2, whole entry, looked up: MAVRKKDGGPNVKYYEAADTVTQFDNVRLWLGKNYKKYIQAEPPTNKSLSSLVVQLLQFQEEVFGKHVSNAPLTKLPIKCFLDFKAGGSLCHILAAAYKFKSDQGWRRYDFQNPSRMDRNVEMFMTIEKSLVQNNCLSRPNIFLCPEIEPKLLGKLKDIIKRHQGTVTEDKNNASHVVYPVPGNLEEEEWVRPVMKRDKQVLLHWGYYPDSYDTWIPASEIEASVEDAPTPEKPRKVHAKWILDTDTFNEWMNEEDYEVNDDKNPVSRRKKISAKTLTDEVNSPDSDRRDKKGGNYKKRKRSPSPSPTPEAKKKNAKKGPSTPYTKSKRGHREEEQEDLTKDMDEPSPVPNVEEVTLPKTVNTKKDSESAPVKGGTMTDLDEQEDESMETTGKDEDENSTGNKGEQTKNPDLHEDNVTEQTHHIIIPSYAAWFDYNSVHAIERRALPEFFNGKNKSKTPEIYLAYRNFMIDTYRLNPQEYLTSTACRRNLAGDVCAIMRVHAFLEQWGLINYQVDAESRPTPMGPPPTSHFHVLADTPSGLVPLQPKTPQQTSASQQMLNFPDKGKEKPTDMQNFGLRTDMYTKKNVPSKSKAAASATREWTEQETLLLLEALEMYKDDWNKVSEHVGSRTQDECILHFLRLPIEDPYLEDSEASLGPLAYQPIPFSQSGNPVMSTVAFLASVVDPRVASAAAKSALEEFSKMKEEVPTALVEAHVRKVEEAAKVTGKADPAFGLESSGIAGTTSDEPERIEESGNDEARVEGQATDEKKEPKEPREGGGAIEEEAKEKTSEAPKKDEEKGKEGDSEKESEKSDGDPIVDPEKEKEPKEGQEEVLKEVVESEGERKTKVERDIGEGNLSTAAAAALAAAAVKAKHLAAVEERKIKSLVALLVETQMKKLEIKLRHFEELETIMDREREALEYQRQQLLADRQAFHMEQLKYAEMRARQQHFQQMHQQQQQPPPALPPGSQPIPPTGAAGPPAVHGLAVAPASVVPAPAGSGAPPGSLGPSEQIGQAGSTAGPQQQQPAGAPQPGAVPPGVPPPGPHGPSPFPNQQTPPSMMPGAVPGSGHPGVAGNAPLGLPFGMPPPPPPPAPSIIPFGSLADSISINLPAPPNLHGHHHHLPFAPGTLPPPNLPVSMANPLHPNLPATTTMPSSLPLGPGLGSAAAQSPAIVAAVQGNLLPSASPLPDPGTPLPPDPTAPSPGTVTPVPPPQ

[2] = compound: CON(C)C(=O)N1N=C(c2cc(F)ccc2F)S[C@@]1(CCCN)c1ccccc1 [filanesib]
Procedure, shortened: as §1

[3] = compound: CO[C@H]1C[C@@H]2CC[C@@H](C)[C@@](O)(O2)C(=O)C(=O)N2CCCC[C@H]2C(=O)O[C@H]([C@H](C)C[C@@H]2CC[C@H](n3cnnn3)[C@H](OC)C2)CC(=O)[C@H](C)/C=C(\C)[C@@H](O)[C@@H](OC)C(=O)[C@H](C)C[C@H](C)/C=C/C=C/C=C/1C [zotarolimus]
Procedure, shortened: as §1

[4] = compound: COc1cc(C(=O)O)ccc1NC(=O)[C@@H]1N[C@@H](CC(C)(C)C)[C@](C#N)(c2ccc(Cl)cc2F)[C@H]1c1cccc(Cl)c1F [idasanutlin]
Procedure, shortened: as §1

[5] = compound: COc1cc(Nc2ncc3c(n2)-c2ccc(Cl)cc2C(c2c(F)cccc2OC)=NC3)ccc1C(=O)O [alisertib]
Procedure, shortened: as §1

[6] = compound: COc1cc2nc(-c3cc(F)ccc3O)nc(N[C@@H]3CNC[C@H]3C(C)(C)O)c2cc1OC
Procedure, shortened: as §1

[7] = compound: COc1cc2ncnc(Nc3ccc(F)c(Cl)c3)c2cc1OCCCN1CCOCC1 [gefitinib]
Procedure, shortened: as §1

[8] = compound: COc1cccc2cc(-c3nc([C@H]4CC[C@H](C(=O)O)CC4)n4ncnc(N)c34)[nH]c12
Procedure, shortened: as §1

[9] = compound: CS(=O)(=O)CCNCc1ccc(-c2ccc3ncnc(Nc4ccc(OCc5cccc(F)c5)c(Cl)c4)c3c2)o1 [lapatinib]
Procedure, shortened: as §1

[10] = compound: CS(=O)(=O)N1CCN(Cc2cc3nc(-c4cccc5[nH]ncc45)nc(N4CCOCC4)c3s2)CC1 [pictilisib]
Procedure, shortened: as §1

[11] = compound: CS(=O)(=O)c1ccc(-c2cnc(N)c(C(=O)Nc3ccccc3)n2)cc1
Procedure, shortened: as §1

[12] = compound: C[C@@H](Oc1cc(-c2cnn(C3CCNCC3)c2)cnc1N)c1c(Cl)ccc(F)c1Cl [crizotinib]
Procedure, shortened: as §1

[13] = compound: C[C@@H]1COCCN1C2=NC(=NC(=C2)C3(CC3)S(=O)(=O)C)C4=C5C=CNC5=CC=C4
Procedure, shortened: as §1

[14] = compound: C[C@H](C1=CC=C(C=C1)C(=O)NC2=C3C=CNC3=NC=C2)N
Procedure, shortened: as §1

[15] = compound: C[C@H](Nc1ncnc2nc[nH]c12)c1cc2cccc(Cl)c2c(=O)n1-c1ccccc1 [duvelisib]
Procedure, shortened: as §1

[16] = compound: Cc1cc(Nc2cc(CN3CCOCC3)c3nc(C)c(Cc4ccc(Cl)cc4F)n3n2)n[nH]1 [gandotinib]
Procedure, shortened: as §1

[17] = compound: Cc1cc(Nc2cc(N3CCN(C)CC3)nc(Sc3ccc(NC(=O)C4CC4)cc3)n2)n[nH]1 [tozasertib]
Procedure, shortened: as §1

[18] = compound: Cc1cc(SCc2sc(-c3ccc(C(F)(F)F)cc3)nc2C)ccc1OCC(=O)O
Procedure, shortened: as §1

[19] = compound: Cc1ccc(-n2nc(C(C)(C)C)cc2NC(=O)Nc2ccc(OCCN3CCOCC3)c3ccccc23)cc1 [doramapimod]
Procedure, shortened: as §1

[20] = compound: Cc1ccc(C(=O)N(CCCN)[C@@H](c2nc3cc(Cl)ccc3c(=O)n2Cc2ccccc2)C(C)C)cc1 [ispinesib]
Procedure, shortened: as §1

Measured: log2 fold change

SNTA1 (UniProt Q13424)
inactive: [1] 0.003 | [2] 0.069 | [3] 0.005 | [4] -0.011 | [5] -0.093 | [6] 0.172 | [7] 0.096 | [8] 0.045 | [9] 0.151 | [10] 0.069 | [11] -0.087 | [12] 0.176 | [13] 0.087 | [14] -0.001 | [15] 0.065 | [16] -0.16 | [17] -0.055 | [18] 0.033 | [19] 0.023 | [20] 0.088

SORBS1 isoform 12 (UniProt Q9BX66)
inactive: [1] -0.053 | [2] -0.033 | [3] 0.006 | [4] -0.007 | [5] 0.016 | [6] 0.044 | [7] 0.027 | [8] -0.02 | [9] 0.037 | [10] 0.003 | [11] 0.001 | [12] 0.01 | [13] 0.022 | [14] -0.029 | [15] 0 | [16] -0.058 | [17] -0.075 | [18] -0.024 | [19] -0.013 | [20] -0.007

SNRPD1 (UniProt P62314)
inactive: [1] -0.074 | [2] 0.151 | [3] -0.062 | [4] 0.08 | [5] -0.136 | [6] 0.084 | [7] -0.039 | [8] 0.037 | [9] -0.027 | [10] 0.062 | [11] -0.001 | [12] 0.014 | [13] 0.014 | [14] -0.005 | [15] -0.052 | [16] 0.044 | [17] -0.023 | [18] -0.137 | [19] 0.021 | [20] -0.021

SNRPF (UniProt P62306)
inactive: [1] 0.05 | [2] 0.085 | [3] -0.014 | [4] 0.108 | [5] -0.097 | [6] -0.167 | [7] -0.006 | [8] -0.111 | [9] 0.1 | [10] -0.093 | [11] -0.044 | [12] -0.072 | [13] -0.226 | [14] -0.149 | [15] -0.219 | [16] 0.053 | [17] 0.02 | [18] 0.018 | [19] -0.193 | [20] 0.134

SMN1 (UniProt Q16637)
inactive: [1] -0.006 | [2] 0.284 | [3] 0.059 | [4] 0.208 | [5] -0.168 | [6] -0.037 | [7] -0.01 | [8] -0.061 | [9] 0.029 | [10] -0.087 | [11] -0.089 | [12] -0.08 | [13] -0.039 | [14] 0.29 | [15] -0.146 | [16] 0.129 | [17] -0.001 | [18] 0.052 | [19] 0.02 | [20] -0.042

Taken from the entries so far (two entries):
SNRPD1 (UniProt P62314)
inactive: [1] -0.074 | [2] 0.151 | [3] -0.062 | [4] 0.08 | [5] -0.136 | [6] 0.084 | [7] -0.039 | [8] 0.037 | [9] -0.027 | [10] 0.062 | [11] -0.001 | [12] 0.014 | [13] 0.014 | [14] -0.005 | [15] -0.052 | [16] 0.044 | [17] -0.023 | [18] -0.137 | [19] 0.021 | [20] -0.021

SNRPF (UniProt P62306)
inactive: [1] 0.05 | [2] 0.085 | [3] -0.014 | [4] 0.108 | [5] -0.097 | [6] -0.167 | [7] -0.006 | [8] -0.111 | [9] 0.1 | [10] -0.093 | [11] -0.044 | [12] -0.072 | [13] -0.226 | [14] -0.149 | [15] -0.219 | [16] 0.053 | [17] 0.02 | [18] 0.018 | [19] -0.193 | [20] 0.134

Continued.

SNF8 (UniProt Q96H20)
inactive: [1] 0.132 | [2] -0.052 | [3] -0.019 | [4] 0.041 | [5] -0.03 | [6] -0.042 | [7] 0 | [8] 0.017 | [9] 0.008 | [10] -0.081 | [11] 0.002 | [12] 0.037 | [13] 0.061 | [14] -0.018 | [15] -0.02 | [16] 0.04 | [17] -0.032 | [18] -0.093 | [19] -0.044 | [20] 0.062

SMIM26, A0A096LP01
inactive: [1] -0.073 | [2] -0.098 | [3] -0.092 | [4] -0.109 | [5] -0.084 | [6] 0.081 | [7] -0.017 | [8] 0.031 | [9] 0.134 | [10] -0.105 | [11] -0.057 | [12] -0.075 | [13] -0.044 | [14] 0.022 | [15] 0.007 | [16] -0.059 | [17] 0.029 | [18] -0.002 | [19] -0.017 | [20] -0.11

SMAD4 (UniProt Q13485)
inactive: [1] 0.06 | [2] -0.004 | [3] 0.003 | [4] -0.064 | [5] -0.029 | [6] 0.005 | [7] 0 | [8] 0.006 | [9] -0.003 | [10] 0.112 | [11] 0.02 | [12] 0.122 | [13] 0.045 | [14] -0.077 | [15] 0.067 | [16] -0.012 | [17] 0.022 | [18] -0.012 | [19] -0.038 | [20] 0.082

SOD1 (UniProt P00441)
inactive: [1] -0.196 | [2] -0.012 | [3] 0.009 | [4] 0.009 | [5] 0 | [6] 0.015 | [7] -0.03 | [8] 0.127 | [9] -0.053 | [10] 0.088 | [11] 0.018 | [12] 0.137 | [13] 0.125 | [14] 0.026 | [15] 0 | [16] -0.01 | [17] 0.085 | [18] -0.028 | [19] 0.087 | [20] -0.029

SLC9A3R1 (UniProt O14745)
inactive: [1] 0.021 | [2] -0.024 | [3] -0.032 | [4] 0.011 | [5] -0.037 | [6] 0 | [7] 0 | [8] 0.038 | [9] 0.012 | [10] 0.017 | [11] 0.012 | [12] 0.028 | [13] 0.007 | [14] -0.041 | [15] 0.04 | [16] 0.009 | [17] -0.017 | [18] -0.053 | [19] -0.048 | [20] 0.041

SNRPE (UniProt P62304)
inactive: [1] -0.09 | [2] 0.038 | [3] -0.045 | [4] -0.085 | [5] -0.228 | [6] 0.106 | [7] 0.003 | [8] 0.042 | [9] 0.052 | [10] -0.026 | [11] -0.059 | [12] 0.05 | [13] 0.016 | [14] 0.061 | [15] 0.019 | [16] -0.017 | [17] -0.021 | [18] -0.036 | [19] 0.03 | [20] 0.052

SMC3 (UniProt Q9UQE7)
inactive: [1] 0.056 | [2] 0.025 | [3] 0.007 | [4] -0.011 | [5] -0.025 | [6] 0.009 | [7] 0.002 | [8] 0.025 | [9] -0.009 | [10] 0.024 | [11] 0.001 | [12] 0.021 | [13] 0.051 | [14] -0.077 | [15] 0.04 | [16] -0.011 | [17] 0.006 | [18] -0.021 | [19] -0.015 | [20] 0.027

SMNDC1 (UniProt O75940)
inactive: [1] -0.014 | [2] 0.053 | [3] -0.043 | [4] 0.072 | [5] -0.005 | [6] 0.075 | [7] -0.002 | [8] 0.012 | [9] -0.003 | [10] 0.042 | [11] 0.006 | [12] 0.041 | [13] 0.007 | [14] 0.053 | [15] 0.029 | [16] -0.01 | [17] 0.018 | [18] -0.013 | [19] -0.018 | [20] 0.067

SNRPD2 (UniProt P62316)
inactive: [1] 0.004 | [2] 0.06 | [3] -0.041 | [4] 0.073 | [5] -0.096 | [6] 0.037 | [7] -0.006 | [8] -0.031 | [9] 0 | [10] -0.004 | [11] -0.036 | [12] -0.001 | [13] -0.074 | [14] 0.008 | [15] -0.094 | [16] 0.101 | [17] -0.001 | [18] -0.094 | [19] 0 | [20] 0.074

SMIM12 (UniProt Q96EX1)
inactive: [1] -0.256 | [2] -0.071 | [3] 0.022 | [4] 0.014 | [5] -0.134 | [6] -0.029 | [7] -0.004 | [8] -0.165 | [9] -0.103 | [10] 0.004 | [11] 0.038 | [12] 0.127 | [13] 0.043 | [14] -0.068 | [15] 0.067 | [16] -0.033 | [17] -0.061 | [18] 0.002 | [19] -0.04 | [20] -0.056

SMARCC2 (UniProt Q8TAQ2)
inactive: [1] -0.017 | [2] -0.118 | [3] 0.06 | [4] 0.123 | [5] -0.102 | [6] -0.044 | [7] -0.043 | [8] -0.263 | [9] -0.024 | [10] -0.148 | [11] 0.078 | [12] -0.202 | [13] 0.045 | [14] 0.195 | [15] -0.03 | [16] -0.038 | [17] 0.167 | [18] 0.182 | [19] -0.006 | [20] -0.009
